No constants are given. Whether binding was seen depends on the method and setting. Binding seen in cells or lysates may run through a third protein. For part of these data: Binding can be weak; no strength is given. Where a sequence is shown, tags or fusion partners need not be part of it.
Columns and labels:
[1] = target: NYFP (N-terminal fragment of YFP, alone); test: split reporter; BiFC: NYFP and CYFP fusions co-transformed into maize protoplasts, YFP fluorescence by confocal microscopy 12 h after transfection
ZmPIMT1:NYFP (maize) = test: as above
ZmPIMT1:NLUC (maize) = test: split reporter; firefly luciferase complementation imaging (LCI): NLUC and CLUC fusions co-infiltrated by Agrobacterium into N. benthamiana leaves, examined after 48 h with a cooled CCD

B1: AtPABP2:CYFP (protein, UniProt P42731 1-629)
chain: MAQVQLQGQTPNGSTAAVTSAPATSGGATATQFGNTSLYVGDLDFNVTDSQLFDAFGQMGTVVTVRVCRDLVTRRSLGYGYVNFTNPQDAARAIQELNYIPLYGKPIRVMYSHRDPSVRRSGAGNIFIKNLDESIDHKALHDTFSSFGNIVSCKVAVDSSGQSKGYGFVQYANEESAQKAIEKLNGMLLNDKQVYVGPFLRRQERDSTANKTKFTNVYVKNLAESTTDDDLKNAFGEYGKITSAVVMKDGEGKSKGFGFVNFENADDAARAVESLNGHKFDDKEWYVGRAQKKSERETELRVRYEQNLKEAADKFQSSNLYVKNLDPSISDEKLKEIFSPFGTVTSSKVMRDPNGTSKGSGFVAFATPEEATEAMSQLSGKMIESKPLYVAIAQRKEDRRVRLQAQFSQVRPVAMQPSVGPRMPVYPPGGPGIGQQMFYGQAPPAMIPPQPGYGYQQQLVPGMRPGGGPVPSFFMPMVQPQQQRPGGGRRPGGIQHSQQQNPMMQQQMHPRGRMFRYPQGRGGSGDVPPYDMGNNMPLTIGALASNLSNATPEQQRTMLGEVLYPLVEQVEAESAAKVTGMLLEMDQTEVLHLLESPEALKAKVAEAMDVLRSVAAGGATEQLASLNLS
[1]
  binding: no binding
ZmPIMT1:NYFP (maize)
  binding: binds

B2: AtPABP2:CLUC (CLUC fusion of the Arabidopsis ortholog of ZmPABP2) (protein, UniProt P42731 1-629)
chain: B1 chain
ZmPIMT1:NLUC (maize)
  binding: binds
